{"source": "PubChem BioAssay AID2417", "about": "(National Center for Advancing Translational Sciences (NCATS), 2010)", "note": "In all, about 140,000 compounds went through this assay and about 4,300 (3.1%) were called active. Inconclusive means that the source gave no clear call. Such entries were picked first, then a sample of the others.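 How the source made its calls: active means readout at or below -70, meaning at least 70% loss of cells showing the perinucleolar compartment, a nuclear body marking cancer cells; inconclusive means readout between -30 and a set limit; inactive means the rest.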"}
{"assay": "High Content Assay for Compounds that inhibit the Assembly of the Perinucleolar Compartment;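 further: plate controls were DMSO wells for no effect and camptothecin positive control wells for full effect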", "conditions": "PC3M PTB-GFP, PNC prevalence imaging, 16 h; at 10 µM; hits give low values", "outline": "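Compounds are pinned in duplicate onto adhered PC3M cells stably expressing GFP-tagged PTB and incubated 16 h at 37 C. Cells are then fixed, nuclei stained with Hoechst, and PNC-positive cells counted.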"}
{"smiles": "O=C(CSc1nnc(Cc2cc(=O)[nH]c(=O)[nH]2)n1-c1ccc(Cl)cc1)NCC1CCCO1", "note": "(stereo not drawn)", "activity change (PNC), negative = inhibition": "inconclusive: -76.9%"}
{"smiles": "Cc1ccccc1CSCCNC(=O)c1ccccc1", "activity change (PNC), negative = inhibition": "inactive: 3.84%"}
{"smiles": "O=c1[nH]cnc2c1ncn2[C@@H]1O[C@H](CO)[C@@H](O)[C@H]1O", "activity change (PNC), negative = inhibition": "inconclusive: -41.7%"}
{"smiles": "Cc1ccc2nc(SCC(=O)N(CC(C)C)c3c(N)n(CC(C)C)c(=O)[nH]c3=O)[nH]c2c1", "activity change (PNC), negative = inhibition": "inconclusive: -50.5%"}
{"smiles": "COc1ccccc1N1CCN(c2cc(=O)n(-c3ccc(Cl)cc3)c(=O)[nH]2)CC1", "activity change (PNC), negative = inhibition": "inconclusive: -32.4%"}
{"smiles": "Nc1c(-c2ccccc2)c(CN2CCOCC2)nn1-c1ccccc1", "activity change (PNC), negative = inhibition": "inconclusive: -65.4%"}
{"smiles": "CCCOc1ccc(-c2nnn(CC(=O)OCC)n2)cc1", "activity change (PNC), negative = inhibition": "inconclusive: -53.4%"}
{"smiles": "COc1ccc(-n2nc([N+](=O)[O-])c(=NCc3cccnc3)n2O)cc1", "activity change (PNC), negative = inhibition": "inconclusive: -32.4%"}
{"smiles": "CCn1c(SCc2nc3ccccc3[nH]2)nnc1-c1cnccn1", "activity change (PNC), negative = inhibition": "inconclusive: -32.5%"}
{"smiles": "CCc1ccc(-c2nc(CN3CCC(C(=O)NCCc4ccc(OC)c(OC)c4)CC3)c(C)o2)cc1", "activity change (PNC), negative = inhibition": "inconclusive: -32.5%"}
{"smiles": "O=C(CNS(=O)(=O)c1cccs1)N1CCc2ccccc2C1", "activity change (PNC), negative = inhibition": "inconclusive: -60.7%"}
{"smiles": "Cc1cc(OCCCC(=O)N2CCCCC2)cc(C)c1Cl", "activity change (PNC), negative = inhibition": "inconclusive: -59.5%"}
{"smiles": "CC(=O)NN1C(=O)/C(=C/c2ccc(C(C)C)cc2)SC1=S", "activity change (PNC), negative = inhibition": "inconclusive: -46.7%"}
{"smiles": "CC1CCN(S(=O)(=O)c2ccc3c(c2)oc(=O)n3CC(=O)NCc2ccc3c(c2)OCO3)CC1", "activity change (PNC), negative = inhibition": "inactive: -9.82%"}
{"smiles": "CC(=O)c1cn(CC(=O)Nc2ccc(C)cc2)c2ccccc12", "activity change (PNC), negative = inhibition": "inactive: 42.5%"}
{"smiles": "CCc1ccc(C2CC(=O)NC(SCC(=O)OC(C)C)=C2C#N)cc1", "note": "(stereo not drawn)", "activity change (PNC), negative = inhibition": "inconclusive: -58.8%"}
{"smiles": "Cc1cc(C)cc(Nc2cnn(C34CC5CC(CC(CC(=O)O)(C5)C3)C4)c(=O)c2Cl)c1", "activity change (PNC), negative = inhibition": "inconclusive: -49.9%"}
{"smiles": "COC(=O)c1ccc2c(=O)n(CCCN3CCOCC3)c(=S)[nH]c2c1", "activity change (PNC), negative = inhibition": "inactive: -7.24%"}
{"smiles": "CC1CCN(S(=O)(=O)c2cccc(C(=O)Nc3ccccn3)c2)CC1", "activity change (PNC), negative = inhibition": "inconclusive: -65.5%"}
{"smiles": "Cc1sc2nc(SCc3nc(-c4cccs4)no3)n(-c3ccccc3)c(=O)c2c1C", "activity change (PNC), negative = inhibition": "inconclusive: -78.7%"}
{"smiles": "COc1ccc(-c2cc3c(=O)n(CC(=O)NC4CCN(Cc5ccccc5)CC4)ncn3n2)cc1", "activity change (PNC), negative = inhibition": "active: -90.5%"}
{"smiles": "Cc1cc(C(=O)OCC(=O)c2ccc3c(c2)OCCO3)c(C)o1", "activity change (PNC), negative = inhibition": "inconclusive: -41.3%"}
{"smiles": "O=C1[C@@H]2[C@@H]3C[C@@H]([C@H]4ON=C(c5ccc(Cl)cc5)[C@@H]34)[C@@H]2C(=O)N1C1CCCCC1", "activity change (PNC), negative = inhibition": "inconclusive: -67.6%"}
